Experimental data: US20080262068A1, “Method of Tonic Treatment With Oxyphenbutazone Derivatives” (A-Viral ASA, priority 2004, published 2008)
Some entries share one result that the patent states for a list of compounds.

Tested on: Interleukin-6 (IL6) and Granulocyte Colony-Stimulating Factor (GM-CSF) production
Test: Suppression of cytokine production in isolated human mononuclear cells
Assay type: cell-based
Settings: isolated human MNC from peripheral blood of healthy volunteers

Compound | concentration sufficient to completely block production of the measured cytokines (IL6 and GM-CSF)
CCCCC1(O)C(=O)N(c2ccccc2)N(c2ccc(O)cc2)C1=O (centres unmarked) [4-OH-OPB, 4-Hydroxy-oxyphenbutazone] | 0.5-5 FM
N-phenyl-2-hydroxy-2-butyl-1,3-propanal quinoneimine [PHBPQ] | 0.5-2 FM
